Test results from patent US20150374663A1.
Results are given in words; binding and its absence hold for the method and conditions named. Some results given as binding are weak or reduced against the parent protein; the word gives no strength.

Protein sequences, listed by entry. Tags and fused reporters are not part of them. Residues count along the entry.
UniProt P13686, residues 22-325: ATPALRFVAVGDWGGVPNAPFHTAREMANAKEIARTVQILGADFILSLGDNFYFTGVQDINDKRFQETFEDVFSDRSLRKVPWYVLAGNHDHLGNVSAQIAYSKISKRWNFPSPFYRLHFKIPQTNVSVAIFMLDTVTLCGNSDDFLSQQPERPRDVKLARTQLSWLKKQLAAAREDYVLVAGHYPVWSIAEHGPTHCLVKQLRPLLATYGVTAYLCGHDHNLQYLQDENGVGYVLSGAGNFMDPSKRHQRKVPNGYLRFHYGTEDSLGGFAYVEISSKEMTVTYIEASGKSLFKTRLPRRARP

Legend:
[1] = target: TRAP deposited by osteoclasts on human cortical bone wafers (human) (UniProt P13686); assay: confocal imaging of fluorescently labeled peptide incubated overnight on human cortical bone wafers
[2] = target: TRAP deposited by osteoclasts on human cortical bone wafers (human) (UniProt P13686); assay: confocal fluorescence microscopy of fluorescently labelled peptide incubated on human cortical bone wafers

TPLSYLKGLVTVG [TRAP-binding peptide (TBP), …] was tested. Which binding [1] did it give?
Its binding is “binds”.

What about the binding [2] of the same binder?
Its binding is “binds”.
